Laboratory results as given in the supplement of paper PMC10849652.
This is one part of the list.

The chains behind the UniProt entries cited, without tags or fusion partners. Where a name states a change or a piece, a line headed by the entry shows the natural chain unless it says otherwise.
UniProt P52895: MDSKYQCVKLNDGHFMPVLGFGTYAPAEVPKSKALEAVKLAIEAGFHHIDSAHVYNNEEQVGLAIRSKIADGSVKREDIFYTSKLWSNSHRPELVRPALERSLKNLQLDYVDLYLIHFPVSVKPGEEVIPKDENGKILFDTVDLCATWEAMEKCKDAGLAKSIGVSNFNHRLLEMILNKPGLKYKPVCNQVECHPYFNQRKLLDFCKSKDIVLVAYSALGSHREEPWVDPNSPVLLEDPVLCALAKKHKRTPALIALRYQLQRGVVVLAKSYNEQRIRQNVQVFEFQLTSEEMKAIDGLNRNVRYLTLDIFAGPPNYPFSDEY
UniProt Q8IZ83: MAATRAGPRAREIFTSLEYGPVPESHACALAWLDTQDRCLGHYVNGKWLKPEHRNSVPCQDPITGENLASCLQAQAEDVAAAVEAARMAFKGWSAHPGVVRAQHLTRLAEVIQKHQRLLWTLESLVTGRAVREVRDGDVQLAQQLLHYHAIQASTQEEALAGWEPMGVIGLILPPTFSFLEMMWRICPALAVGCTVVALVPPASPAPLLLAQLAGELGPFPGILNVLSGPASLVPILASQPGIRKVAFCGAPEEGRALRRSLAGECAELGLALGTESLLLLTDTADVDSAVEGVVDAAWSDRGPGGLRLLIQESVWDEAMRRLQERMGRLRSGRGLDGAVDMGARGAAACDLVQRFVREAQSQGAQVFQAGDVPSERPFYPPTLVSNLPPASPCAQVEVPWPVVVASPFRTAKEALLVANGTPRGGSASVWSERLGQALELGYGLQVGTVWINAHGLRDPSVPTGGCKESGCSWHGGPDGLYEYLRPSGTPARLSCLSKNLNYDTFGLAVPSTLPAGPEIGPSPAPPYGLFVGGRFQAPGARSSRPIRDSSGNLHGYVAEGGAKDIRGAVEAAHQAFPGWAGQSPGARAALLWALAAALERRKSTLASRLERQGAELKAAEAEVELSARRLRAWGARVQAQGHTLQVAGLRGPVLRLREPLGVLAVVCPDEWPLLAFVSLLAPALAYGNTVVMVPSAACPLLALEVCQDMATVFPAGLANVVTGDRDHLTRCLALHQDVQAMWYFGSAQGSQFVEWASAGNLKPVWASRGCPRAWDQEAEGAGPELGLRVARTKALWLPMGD
UniProt Q13686: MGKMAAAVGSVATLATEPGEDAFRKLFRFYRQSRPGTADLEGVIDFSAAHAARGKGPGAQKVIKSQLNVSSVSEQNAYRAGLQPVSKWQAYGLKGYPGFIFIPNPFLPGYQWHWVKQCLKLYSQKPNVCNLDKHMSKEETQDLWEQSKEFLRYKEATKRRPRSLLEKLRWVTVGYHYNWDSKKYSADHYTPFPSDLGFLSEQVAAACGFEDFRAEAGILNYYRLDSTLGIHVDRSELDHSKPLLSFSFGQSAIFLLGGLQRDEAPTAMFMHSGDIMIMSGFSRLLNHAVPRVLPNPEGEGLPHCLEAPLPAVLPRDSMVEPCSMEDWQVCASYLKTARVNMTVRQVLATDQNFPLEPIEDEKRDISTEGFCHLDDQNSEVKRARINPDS
UniProt Q96SZ5, whole entry, looked up: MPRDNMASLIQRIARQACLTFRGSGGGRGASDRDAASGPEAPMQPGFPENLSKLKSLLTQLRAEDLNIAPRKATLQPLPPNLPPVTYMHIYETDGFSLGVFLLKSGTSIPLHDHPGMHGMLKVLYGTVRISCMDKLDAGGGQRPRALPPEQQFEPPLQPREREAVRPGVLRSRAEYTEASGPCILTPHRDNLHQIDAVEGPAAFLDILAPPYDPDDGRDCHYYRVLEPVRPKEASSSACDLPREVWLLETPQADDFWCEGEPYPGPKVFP
UniProt P42330: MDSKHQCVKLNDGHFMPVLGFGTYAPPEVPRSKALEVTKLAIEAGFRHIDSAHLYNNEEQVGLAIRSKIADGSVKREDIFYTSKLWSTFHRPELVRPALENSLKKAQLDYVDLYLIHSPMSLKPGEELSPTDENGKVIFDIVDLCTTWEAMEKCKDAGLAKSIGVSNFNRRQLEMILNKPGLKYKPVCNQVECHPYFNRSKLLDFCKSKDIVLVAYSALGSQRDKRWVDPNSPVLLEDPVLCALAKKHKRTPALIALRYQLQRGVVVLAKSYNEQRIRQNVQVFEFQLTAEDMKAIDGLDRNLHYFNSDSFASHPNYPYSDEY
UniProt P05091: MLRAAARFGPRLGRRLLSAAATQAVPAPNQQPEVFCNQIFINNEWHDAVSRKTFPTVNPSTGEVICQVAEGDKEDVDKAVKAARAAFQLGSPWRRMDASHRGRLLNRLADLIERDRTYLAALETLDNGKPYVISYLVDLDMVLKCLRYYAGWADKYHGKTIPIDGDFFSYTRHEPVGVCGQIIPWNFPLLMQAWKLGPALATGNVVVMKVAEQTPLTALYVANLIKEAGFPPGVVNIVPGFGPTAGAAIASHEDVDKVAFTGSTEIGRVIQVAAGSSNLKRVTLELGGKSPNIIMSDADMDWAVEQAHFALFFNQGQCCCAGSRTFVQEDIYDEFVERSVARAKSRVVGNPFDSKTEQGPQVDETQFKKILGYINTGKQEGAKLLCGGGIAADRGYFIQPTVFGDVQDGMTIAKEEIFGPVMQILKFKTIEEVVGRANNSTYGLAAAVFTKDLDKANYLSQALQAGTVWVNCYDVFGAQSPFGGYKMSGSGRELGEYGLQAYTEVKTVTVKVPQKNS
UniProt P02760: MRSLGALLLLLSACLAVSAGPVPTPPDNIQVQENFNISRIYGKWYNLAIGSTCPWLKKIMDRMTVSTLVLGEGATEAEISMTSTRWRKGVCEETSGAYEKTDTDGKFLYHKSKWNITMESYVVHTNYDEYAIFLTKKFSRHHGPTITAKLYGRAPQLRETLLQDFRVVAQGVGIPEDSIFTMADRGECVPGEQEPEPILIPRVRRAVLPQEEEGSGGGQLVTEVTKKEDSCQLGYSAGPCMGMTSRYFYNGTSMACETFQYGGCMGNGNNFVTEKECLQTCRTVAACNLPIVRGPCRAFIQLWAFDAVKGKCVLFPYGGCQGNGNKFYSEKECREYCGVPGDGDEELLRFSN
UniProt Q9UPW5: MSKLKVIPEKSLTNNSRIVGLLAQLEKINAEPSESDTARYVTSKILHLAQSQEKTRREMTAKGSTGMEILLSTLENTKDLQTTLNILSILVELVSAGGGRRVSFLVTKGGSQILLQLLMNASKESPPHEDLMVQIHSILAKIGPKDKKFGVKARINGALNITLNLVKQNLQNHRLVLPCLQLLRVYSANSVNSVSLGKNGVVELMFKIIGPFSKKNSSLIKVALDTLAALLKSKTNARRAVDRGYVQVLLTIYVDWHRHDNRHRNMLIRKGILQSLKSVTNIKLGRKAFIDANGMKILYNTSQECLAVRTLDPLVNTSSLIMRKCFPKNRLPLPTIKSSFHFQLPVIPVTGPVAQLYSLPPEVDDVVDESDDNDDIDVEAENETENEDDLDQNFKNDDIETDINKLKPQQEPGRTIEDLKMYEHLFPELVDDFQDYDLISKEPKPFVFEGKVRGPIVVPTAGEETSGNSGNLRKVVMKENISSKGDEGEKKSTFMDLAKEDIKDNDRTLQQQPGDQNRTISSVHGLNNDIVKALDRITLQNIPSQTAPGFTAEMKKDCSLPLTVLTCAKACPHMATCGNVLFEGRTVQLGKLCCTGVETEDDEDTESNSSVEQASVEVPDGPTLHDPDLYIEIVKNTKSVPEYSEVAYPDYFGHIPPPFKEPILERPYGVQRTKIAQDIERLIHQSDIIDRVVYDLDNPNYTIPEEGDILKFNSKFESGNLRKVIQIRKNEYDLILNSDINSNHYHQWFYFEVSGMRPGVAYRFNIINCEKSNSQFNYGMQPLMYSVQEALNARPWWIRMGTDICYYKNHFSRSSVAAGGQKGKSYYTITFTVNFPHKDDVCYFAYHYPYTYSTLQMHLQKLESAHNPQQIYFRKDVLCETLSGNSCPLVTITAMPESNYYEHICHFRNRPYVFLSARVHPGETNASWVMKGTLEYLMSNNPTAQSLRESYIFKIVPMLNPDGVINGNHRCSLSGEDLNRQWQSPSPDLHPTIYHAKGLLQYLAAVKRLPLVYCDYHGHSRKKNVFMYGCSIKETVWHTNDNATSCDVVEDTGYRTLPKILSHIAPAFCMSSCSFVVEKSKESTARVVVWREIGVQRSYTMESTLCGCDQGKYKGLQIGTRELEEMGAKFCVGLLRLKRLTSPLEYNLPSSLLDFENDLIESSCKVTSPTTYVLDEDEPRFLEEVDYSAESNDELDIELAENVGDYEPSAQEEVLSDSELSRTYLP
UniProt Q9NP73: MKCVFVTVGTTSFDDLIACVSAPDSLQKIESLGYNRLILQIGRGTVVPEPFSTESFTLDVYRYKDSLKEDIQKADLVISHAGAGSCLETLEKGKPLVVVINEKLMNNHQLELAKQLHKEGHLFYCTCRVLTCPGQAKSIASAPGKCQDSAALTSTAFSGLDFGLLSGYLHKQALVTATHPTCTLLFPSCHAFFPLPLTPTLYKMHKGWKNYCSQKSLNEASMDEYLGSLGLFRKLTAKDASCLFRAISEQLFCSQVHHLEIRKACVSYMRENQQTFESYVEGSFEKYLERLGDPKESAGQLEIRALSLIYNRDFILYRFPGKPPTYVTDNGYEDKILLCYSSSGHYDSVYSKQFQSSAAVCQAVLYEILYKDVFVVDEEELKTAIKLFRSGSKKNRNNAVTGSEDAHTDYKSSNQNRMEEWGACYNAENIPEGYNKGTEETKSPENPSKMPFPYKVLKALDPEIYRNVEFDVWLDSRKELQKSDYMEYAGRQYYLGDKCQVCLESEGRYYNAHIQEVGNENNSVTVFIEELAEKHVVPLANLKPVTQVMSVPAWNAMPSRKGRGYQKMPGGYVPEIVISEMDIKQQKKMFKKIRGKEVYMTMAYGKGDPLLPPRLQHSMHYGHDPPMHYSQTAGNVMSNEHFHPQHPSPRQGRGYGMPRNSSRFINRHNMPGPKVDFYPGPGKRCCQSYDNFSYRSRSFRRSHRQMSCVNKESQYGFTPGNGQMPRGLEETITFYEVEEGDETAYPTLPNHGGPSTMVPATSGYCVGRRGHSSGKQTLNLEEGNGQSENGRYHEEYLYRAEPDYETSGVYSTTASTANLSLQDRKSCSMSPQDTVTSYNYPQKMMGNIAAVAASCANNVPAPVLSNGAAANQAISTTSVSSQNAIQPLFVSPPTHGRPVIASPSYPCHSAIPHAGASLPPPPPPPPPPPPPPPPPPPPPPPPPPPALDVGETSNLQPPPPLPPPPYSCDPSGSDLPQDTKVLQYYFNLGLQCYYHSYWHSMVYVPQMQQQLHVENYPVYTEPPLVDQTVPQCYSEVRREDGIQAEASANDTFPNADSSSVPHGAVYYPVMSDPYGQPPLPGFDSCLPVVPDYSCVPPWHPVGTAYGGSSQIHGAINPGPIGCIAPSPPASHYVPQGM

Assays:
Assay in all cases: log2 fold change, soluble protein after heating vs DMSO (PISA); higher = thermal stabilisation; K562 cells, 10 uM, 30 min; active = over 0.2 and 3.5 SD of the protein, either way, in both replicates (recomputed)
[1] = compound: C1=CC=C(C=C1)[C@H](COC2=CC3=C(C=C2)NC(=O)N3)NC(=O)C4=CC=CN(C4=O)CC5=CC(=C(C=C5)F)F
In short: (§1)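 K562 cells at 2×10^6 cells/mL were treated with 10 μM compound for 30 min. Aliquots were heated for 3 min across 48°C-58°C, pooled, and extracted in PBS with 0.5% NP-40 at 4°C; soluble protein was the supernatant after 21,000xg for 90 min. Soluble protein was quantified by TMTpro 16plex LC-MS/MS with channel sums equalised, and reported as log2 fold change in thermal stability against DMSO controls, with values from duplicates.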

[2] = compound: CC1=C(SC2=C1C(=N[C@H](C3=NN=C(N32)C)CC(=O)N)C4=CC=C(C=C4)Cl)C
In short: as §1

[3] = compound: CC1=C2C(=CC=C1)N=C(N(C2=O)C3=CC=CC=C3C)CN4C=NC5=C(N=CN=C54)N
In short: as §1

[4] = compound: Cc1sc2c(c1C)C(c1ccc(Cl)cc1)=N[C@@H](CC(=O)OC(C)(C)C)c1nnc(C)n1-2
In short: as §1

[5] = compound: c1ccc([C@@H]2C[C@H]2NC2CCNCC2)cc1
In short: as §1

Measured: log2 fold change

AKR1C2 (UniProt P52895)
inactive: [1] 0 | [2] -0.04 | [3] 0.086 | [4] 0.057 | [5] -0.011

ALDH16A1 (UniProt Q8IZ83)
inactive: [1] 0 | [2] 0.029 | [3] 0.08 | [4] -0.02 | [5] 0.009

ALKBH1 (UniProt Q13686)
inactive: [1] 0 | [2] -0.024 | [3] 0.113 | [4] 0.032 | [5] -0.024

ADO (UniProt Q96SZ5)
inactive: [1] -0.019 | [2] 0.046 | [3] 0.03 | [4] 0 | [5] 0.037

AKR1C3 (UniProt P42330)
inactive: [1] 0.155 | [2] 0.049 | [3] 0.132 | [4] -0.038 | [5] -0.156

ALDH2 isoform 2 (UniProt P05091)
inactive: [1] -0.092 | [3] 0.379 | [4] 0.074

AMBP (UniProt P02760)
inactive: [1] -0.09 | [2] -0.053 | [3] 0.076 | [5] 0.079

AGTPBP1 isoform 3 (UniProt Q9UPW5)
inactive: [3] 0.225

ALG13 isoform 2 (UniProt Q9NP73)
inactive: [1] -0.056 | [3] 0
